Experimental data reported in the supplement of paper PMC11732987, “Enantioselective OTUD7B fragment discovery through chemoproteomics screening and high-throughput optimisation” (Communications Chemistry, 2025).
The other results are listed elsewhere or left out. The data scatter; read single values as rough.

By UniProt entry, the sequences of proteins in these tests, tags left out. Where a name states a change or a piece, a line headed by the entry shows the natural chain unless it says otherwise. Residues count along the entry.
UniProt Q08J23, 738-767: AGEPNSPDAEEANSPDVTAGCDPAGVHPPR
UniProt P04150: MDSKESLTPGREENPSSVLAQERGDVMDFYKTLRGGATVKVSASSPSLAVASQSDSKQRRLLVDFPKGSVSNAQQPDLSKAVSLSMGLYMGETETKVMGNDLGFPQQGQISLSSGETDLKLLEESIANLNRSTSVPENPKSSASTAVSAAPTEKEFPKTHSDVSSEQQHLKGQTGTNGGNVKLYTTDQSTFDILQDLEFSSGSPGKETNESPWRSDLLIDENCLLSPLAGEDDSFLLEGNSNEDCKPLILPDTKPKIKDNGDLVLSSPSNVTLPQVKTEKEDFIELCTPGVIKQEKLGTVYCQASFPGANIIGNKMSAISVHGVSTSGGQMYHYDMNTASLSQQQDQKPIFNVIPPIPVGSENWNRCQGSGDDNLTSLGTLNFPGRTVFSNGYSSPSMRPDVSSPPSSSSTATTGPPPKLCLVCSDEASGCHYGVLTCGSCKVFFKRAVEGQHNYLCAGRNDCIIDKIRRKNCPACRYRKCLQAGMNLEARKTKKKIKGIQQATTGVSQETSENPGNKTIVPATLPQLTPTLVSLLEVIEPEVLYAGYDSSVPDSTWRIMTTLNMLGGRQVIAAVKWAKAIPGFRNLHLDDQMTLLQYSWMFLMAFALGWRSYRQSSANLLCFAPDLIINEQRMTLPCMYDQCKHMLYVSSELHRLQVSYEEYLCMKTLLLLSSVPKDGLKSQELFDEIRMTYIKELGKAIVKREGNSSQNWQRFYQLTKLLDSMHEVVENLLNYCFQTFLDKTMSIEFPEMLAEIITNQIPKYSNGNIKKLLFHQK
UniProt P24468: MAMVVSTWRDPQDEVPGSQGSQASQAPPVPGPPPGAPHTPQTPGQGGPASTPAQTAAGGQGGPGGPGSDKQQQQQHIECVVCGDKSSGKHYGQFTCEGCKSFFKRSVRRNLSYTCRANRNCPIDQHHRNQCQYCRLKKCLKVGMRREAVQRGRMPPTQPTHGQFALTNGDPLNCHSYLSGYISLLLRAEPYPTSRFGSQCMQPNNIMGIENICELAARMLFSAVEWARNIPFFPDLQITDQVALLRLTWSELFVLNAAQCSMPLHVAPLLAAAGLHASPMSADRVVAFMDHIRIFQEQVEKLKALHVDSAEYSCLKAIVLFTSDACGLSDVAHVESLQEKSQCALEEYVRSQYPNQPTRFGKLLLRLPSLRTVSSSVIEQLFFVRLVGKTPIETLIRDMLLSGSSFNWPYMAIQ
UniProt O60313: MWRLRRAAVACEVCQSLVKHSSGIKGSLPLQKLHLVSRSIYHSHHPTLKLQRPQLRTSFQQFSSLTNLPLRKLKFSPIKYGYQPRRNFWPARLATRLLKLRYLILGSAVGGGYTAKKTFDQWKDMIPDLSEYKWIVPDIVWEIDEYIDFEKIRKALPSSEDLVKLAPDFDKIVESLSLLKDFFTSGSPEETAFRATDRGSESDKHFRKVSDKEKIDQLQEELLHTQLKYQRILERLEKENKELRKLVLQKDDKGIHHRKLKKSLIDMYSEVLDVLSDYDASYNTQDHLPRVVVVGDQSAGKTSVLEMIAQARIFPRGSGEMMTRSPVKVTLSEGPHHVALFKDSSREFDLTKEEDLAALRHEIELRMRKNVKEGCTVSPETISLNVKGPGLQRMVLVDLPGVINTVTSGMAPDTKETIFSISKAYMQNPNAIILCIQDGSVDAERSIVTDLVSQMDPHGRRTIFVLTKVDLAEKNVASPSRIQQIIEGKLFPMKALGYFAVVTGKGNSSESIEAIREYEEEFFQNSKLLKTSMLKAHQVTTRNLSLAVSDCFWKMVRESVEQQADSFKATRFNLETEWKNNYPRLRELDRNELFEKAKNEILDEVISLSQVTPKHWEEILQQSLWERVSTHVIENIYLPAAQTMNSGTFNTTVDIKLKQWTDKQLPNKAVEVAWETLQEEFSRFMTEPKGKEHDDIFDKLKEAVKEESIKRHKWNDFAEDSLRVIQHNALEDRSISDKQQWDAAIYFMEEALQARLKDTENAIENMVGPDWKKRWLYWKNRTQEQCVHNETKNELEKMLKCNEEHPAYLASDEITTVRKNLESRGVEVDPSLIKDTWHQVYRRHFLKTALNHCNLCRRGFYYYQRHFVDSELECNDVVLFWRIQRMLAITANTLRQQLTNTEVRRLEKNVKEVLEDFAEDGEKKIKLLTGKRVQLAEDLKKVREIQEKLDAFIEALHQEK
UniProt Q9BW27: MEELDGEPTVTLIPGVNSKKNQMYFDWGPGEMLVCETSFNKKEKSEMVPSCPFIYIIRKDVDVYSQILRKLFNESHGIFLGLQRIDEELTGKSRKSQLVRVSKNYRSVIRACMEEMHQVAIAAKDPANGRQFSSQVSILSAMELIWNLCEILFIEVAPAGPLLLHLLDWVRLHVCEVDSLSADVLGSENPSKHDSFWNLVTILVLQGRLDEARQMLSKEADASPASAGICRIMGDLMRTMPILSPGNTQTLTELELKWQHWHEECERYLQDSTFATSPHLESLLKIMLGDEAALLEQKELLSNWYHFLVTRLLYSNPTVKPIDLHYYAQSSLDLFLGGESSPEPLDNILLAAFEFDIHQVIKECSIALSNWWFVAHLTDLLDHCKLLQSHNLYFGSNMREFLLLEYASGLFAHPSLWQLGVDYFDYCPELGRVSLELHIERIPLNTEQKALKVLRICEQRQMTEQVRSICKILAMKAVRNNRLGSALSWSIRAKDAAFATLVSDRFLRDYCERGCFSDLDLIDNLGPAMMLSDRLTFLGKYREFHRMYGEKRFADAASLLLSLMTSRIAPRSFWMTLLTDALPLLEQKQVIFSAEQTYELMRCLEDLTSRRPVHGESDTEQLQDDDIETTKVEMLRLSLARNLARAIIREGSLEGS
UniProt Q96RS6: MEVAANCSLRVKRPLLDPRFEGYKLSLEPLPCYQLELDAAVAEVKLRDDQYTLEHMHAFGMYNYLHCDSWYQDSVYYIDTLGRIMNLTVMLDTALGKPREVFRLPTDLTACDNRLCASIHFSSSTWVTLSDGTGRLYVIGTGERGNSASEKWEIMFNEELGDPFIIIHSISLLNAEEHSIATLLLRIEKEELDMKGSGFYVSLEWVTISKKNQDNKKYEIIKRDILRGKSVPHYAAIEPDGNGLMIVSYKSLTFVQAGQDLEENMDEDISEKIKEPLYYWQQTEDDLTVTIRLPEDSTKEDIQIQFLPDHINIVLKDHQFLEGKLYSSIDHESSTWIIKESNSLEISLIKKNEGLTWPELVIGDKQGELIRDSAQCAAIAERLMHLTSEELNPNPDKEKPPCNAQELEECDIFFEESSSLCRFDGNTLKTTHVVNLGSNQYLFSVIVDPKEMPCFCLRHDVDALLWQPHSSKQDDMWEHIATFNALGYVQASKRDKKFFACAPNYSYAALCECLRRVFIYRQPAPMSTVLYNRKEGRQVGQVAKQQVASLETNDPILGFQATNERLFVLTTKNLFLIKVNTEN
UniProt O43482, whole entry, looked up: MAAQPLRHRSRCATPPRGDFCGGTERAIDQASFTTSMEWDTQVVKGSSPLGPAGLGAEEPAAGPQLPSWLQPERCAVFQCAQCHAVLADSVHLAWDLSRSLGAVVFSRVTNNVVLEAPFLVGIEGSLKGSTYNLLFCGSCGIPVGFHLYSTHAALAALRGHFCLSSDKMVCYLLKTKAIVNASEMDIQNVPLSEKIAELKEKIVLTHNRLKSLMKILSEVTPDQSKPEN
UniProt O75665: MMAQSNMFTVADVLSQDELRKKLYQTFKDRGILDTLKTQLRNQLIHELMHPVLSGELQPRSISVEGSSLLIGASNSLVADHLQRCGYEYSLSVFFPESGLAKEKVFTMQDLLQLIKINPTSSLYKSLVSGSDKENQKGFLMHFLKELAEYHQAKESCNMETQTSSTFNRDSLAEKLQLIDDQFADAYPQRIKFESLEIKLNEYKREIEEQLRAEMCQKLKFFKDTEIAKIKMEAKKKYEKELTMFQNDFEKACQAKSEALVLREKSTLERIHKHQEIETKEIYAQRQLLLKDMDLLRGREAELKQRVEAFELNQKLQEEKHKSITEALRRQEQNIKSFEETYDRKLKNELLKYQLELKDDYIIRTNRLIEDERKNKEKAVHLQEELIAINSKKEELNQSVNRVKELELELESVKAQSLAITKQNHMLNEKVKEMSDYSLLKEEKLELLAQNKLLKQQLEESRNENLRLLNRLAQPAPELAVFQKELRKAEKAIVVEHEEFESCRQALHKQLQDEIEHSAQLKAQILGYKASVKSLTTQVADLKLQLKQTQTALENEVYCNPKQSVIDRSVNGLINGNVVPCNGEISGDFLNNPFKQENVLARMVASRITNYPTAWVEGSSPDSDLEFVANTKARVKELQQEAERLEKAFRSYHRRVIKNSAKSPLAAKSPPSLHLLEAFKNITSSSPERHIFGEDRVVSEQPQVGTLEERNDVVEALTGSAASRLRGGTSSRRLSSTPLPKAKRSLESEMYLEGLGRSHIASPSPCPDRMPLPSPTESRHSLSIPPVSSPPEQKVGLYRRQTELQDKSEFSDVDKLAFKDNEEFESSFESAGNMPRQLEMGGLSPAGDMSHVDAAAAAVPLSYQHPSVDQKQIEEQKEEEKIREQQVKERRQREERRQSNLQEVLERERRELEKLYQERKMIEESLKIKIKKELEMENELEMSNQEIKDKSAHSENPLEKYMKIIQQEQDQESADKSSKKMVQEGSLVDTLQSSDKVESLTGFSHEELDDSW
UniProt Q8N1F7, 397-417: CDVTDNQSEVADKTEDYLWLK
UniProt Q96CV9: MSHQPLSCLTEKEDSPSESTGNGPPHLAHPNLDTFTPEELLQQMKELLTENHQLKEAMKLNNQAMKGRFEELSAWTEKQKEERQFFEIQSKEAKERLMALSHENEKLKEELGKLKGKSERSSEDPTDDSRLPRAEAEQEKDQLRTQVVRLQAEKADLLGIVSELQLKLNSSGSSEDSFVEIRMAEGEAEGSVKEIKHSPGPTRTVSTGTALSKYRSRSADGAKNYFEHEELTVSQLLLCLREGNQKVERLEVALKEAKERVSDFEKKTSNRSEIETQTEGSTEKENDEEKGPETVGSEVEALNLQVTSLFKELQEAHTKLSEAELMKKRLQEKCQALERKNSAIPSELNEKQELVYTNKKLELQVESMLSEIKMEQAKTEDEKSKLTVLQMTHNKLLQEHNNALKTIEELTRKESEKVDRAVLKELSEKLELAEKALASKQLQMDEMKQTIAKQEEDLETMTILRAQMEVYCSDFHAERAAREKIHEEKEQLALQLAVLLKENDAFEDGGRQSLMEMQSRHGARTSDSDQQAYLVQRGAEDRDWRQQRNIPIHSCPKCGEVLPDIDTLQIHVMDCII
UniProt O43929: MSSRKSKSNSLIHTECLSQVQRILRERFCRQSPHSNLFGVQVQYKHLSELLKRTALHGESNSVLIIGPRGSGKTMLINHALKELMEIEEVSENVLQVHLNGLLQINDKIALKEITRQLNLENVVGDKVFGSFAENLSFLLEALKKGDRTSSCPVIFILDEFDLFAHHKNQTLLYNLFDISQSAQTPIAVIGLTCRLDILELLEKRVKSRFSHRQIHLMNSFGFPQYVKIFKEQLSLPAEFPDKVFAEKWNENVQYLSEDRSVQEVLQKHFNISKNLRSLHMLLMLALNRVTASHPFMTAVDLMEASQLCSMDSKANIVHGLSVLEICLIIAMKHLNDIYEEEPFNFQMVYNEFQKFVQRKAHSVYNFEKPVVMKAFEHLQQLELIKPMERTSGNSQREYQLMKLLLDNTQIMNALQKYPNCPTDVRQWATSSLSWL
UniProt Q01968: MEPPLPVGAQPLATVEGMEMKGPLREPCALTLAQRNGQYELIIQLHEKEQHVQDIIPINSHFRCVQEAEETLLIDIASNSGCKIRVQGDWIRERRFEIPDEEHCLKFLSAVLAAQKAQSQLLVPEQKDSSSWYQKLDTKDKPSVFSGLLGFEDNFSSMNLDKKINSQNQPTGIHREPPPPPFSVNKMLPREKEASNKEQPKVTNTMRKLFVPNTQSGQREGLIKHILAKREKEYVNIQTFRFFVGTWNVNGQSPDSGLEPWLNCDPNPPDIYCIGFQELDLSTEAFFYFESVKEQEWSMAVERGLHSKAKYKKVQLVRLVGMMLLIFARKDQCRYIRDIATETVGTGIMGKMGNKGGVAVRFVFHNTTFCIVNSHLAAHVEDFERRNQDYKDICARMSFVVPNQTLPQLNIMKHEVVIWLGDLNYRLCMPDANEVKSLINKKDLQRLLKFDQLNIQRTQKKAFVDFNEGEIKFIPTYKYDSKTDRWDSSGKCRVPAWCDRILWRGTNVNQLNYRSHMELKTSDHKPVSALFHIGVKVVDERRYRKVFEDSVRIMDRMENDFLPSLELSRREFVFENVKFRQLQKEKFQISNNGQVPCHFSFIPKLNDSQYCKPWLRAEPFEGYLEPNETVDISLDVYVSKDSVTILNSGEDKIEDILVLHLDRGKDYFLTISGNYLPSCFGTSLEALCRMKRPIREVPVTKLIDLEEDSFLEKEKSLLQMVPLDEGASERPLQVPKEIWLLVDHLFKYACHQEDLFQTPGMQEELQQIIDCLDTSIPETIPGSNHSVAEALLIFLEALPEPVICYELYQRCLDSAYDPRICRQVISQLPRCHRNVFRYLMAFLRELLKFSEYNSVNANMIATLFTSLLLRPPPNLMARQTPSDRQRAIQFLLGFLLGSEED

How the values were obtained:
[1] = compound: ClCC(=O)N[C@@H]1CCCc2ccccc12; test: log2 mean competition ratio of IA-DTB cysteine labelling (DMSO/compound) (log2 ratio); higher = stronger cysteine engagement by compound; conditions: treatment time: 4 h, cell line lysate: HEK293T
Procedure: (§1)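 IA-DTB competitive cysteine chemoproteomics in HEK293T RIPA lysate. Lysates were treated with compound 29 or 30 at 50 or 200 µM for 4 h, then IA-DTB (500 µM, 1 h), trypsin-digested, NeutrAvidin-enriched and analysed by diaPASEF. Competition ratio = intensity DMSO / intensity compound (n=4 treated, n=64 DMSO); binding: mean log2 CR ≥ 1 and p ≤ 0.05 plus QC filters. Target is the cysteine site.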

[2] = compound: ClCC(=O)N[C@H]1CCCc2ccccc12; test: as above; conditions: treatment time: 4 h, cell line lysate: HEK293T
Procedure: as §1

| Target | log2 mean competition ratio ([1]; 50 µM) | log2 mean competition ratio ([1]; 200 µM) | log2 mean competition ratio ([2]; 50 µM) | log2 mean competition ratio ([2]; 200 µM) |
| --- | --- | --- | --- | --- |
| NUP160 C916 (UniProt Q12769) | -0.179 | -0.201 | -0.219 | -0.102 |
| NUP188 C1270 (UniProt Q5SRE5) | -0.0571 | -0.0228 | 0.0536 | -0.113 |
| NSUN2 C758 (UniProt Q08J23) | -0.656 | -0.109 | -0.549 | -0.139 |
| NUP214 C728 | 0.19 | -0.0119 | 0.192 | 0.799 |
| NR3C1 C457 (UniProt P04150) | 0.146 | 0.126 | 0.0741 | 0.0735 |
| NOSIP C8 (UniProt Q9Y314) | 0.329 | -0.182 | 0.24 | -0.189 |
| OBI1 C338 (UniProt Q5W0B1) | -0.156 | 0.291 | -0.0198 | 0.261 |
| NR2F2 C343 (UniProt P24468) | 0.255 | 0.637 | 0.00658 | 0.766 |
| NUB1 C317 | 0.148 | 0.173 | 0.165 | -0.0184 |
| OPA1 C786 (UniProt O60313) | -0.0519 | 0.141 | -0.0978 | -0.0949 |
| NUP85 C603 (UniProt Q9BW27) | -0.101 | 0.113 | -0.362 | 0.0468 |
| NUDCD1 C7 (UniProt Q96RS6) | 0.289 | 0.0814 | 0.281 | 0.163 |
| NUMBL C99 (UniProt Q9Y6R0) | -0.288 | 0.0144 | 0.195 | 0.259 |
| OIP5 C21 (UniProt O43482) | -0.192 | 0.00643 | -0.211 | 0.197 |
| NSD2 C38 (UniProt O96028) | 0.097 | 0.137 | 0.0961 | 0.268 |
| OFD1 C503 (UniProt O75665) | 0.351 | 0.453 | 0.0937 | -0.108 |
| NUP93 C397 (UniProt Q8N1F7) | 0.152 | -0.628 | 0.589 | -0.164 |
| OPTN C472 (UniProt Q96CV9) | -0.2 | -0.000861 | -0.389 | -0.192 |
| ORC4 C421 (UniProt O43929) | 0.216 | 0.169 | -0.275 | 0.144 |
| NUDT5 C76 | -0.00712 | -0.0285 | 0.0525 | 0.00974 |
| NR2F2 C115 (UniProt P24468) | 0.179 | -0.0521 | 0.595 | 0.0292 |
| OCRL C611 (UniProt Q01968) | 0.243 | 0.242 | -0.166 | 0.218 |
| OSBPL9 C147 | 0.0307 | 0.149 | -0.0318 | 0.0426 |
| NSF C264 (UniProt P46459) | 0.555 | 0.152 | 0.382 | 0.155 |
| NUP160 C65 (UniProt Q12769) | -0.011 | -0.47 | 0.0493 | -0.456 |

Taken from above.
Entry of NR2F2 C115 (UniProt P24468) under log2 mean competition ratio ([1]; 200 µM): -0.0521
Entry of NR3C1 C457 (UniProt P04150) under log2 mean competition ratio ([1]; 200 µM): 0.126
